Where a chain is given by its changes, count along the chain named. Results are given in words; binding and its absence hold for the method and conditions named. Some entries that bind do so weakly or less than the wild type. Where a sequence is shown, tags or fusion partners need not be part of it.
Assays:
Assay in all cases: co-purification (Ni2+ affinity chromatography, then SEC); His-tagged Kar9 and untagged Bim1 expressed separately in bacteria, mixed before lysis in 20 mM Tris-HCl pH 7.5, 500 mM NaCl; Ni2+-Sepharose at 4 °C, then Superdex size exclusion
[1] = target: T1, Full-length wild-type N-terminally hexa-histidine-tagged S. cerevisiae Kar9 (S. cerevisiae) (UniProt P32526)
T1 sequence: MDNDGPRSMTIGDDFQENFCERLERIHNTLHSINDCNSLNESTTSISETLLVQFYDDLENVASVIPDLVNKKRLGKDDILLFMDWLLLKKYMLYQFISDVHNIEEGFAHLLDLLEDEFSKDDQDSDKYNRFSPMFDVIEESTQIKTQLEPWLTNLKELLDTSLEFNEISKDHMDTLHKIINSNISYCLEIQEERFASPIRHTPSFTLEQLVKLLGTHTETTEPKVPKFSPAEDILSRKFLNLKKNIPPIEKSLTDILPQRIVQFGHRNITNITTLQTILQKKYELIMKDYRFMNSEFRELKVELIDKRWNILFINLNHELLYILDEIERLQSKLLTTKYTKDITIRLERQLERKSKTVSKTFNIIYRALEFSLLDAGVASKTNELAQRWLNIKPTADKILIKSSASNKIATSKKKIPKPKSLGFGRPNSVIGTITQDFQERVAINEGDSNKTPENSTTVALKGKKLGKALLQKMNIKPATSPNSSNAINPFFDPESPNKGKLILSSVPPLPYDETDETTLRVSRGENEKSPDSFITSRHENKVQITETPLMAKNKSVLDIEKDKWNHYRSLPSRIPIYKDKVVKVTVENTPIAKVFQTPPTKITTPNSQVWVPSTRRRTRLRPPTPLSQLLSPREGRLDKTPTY

[2] = target: T2, Full-length N-terminally hexa-histidine-tagged S. cerevisiae Kar9-α^− (Phe292Ala/Leu347Ala) (S. cerevisiae) (UniProt P32526)
T2 sequence: T1 sequence with F292A, L347A

[3] = target: T3, Full-length N-terminally hexa-histidine-tagged S. cerevisiae Kar9-β^− (Arg237Ala/Asn241Ala) (S. cerevisiae) (UniProt P32526)
T3 sequence: T1 sequence with R237A, N241A

[4] = target: T4, Full-length N-terminally hexa-histidine-tagged S. cerevisiae Kar9-γ^− (Tyr366Ala/Arg367Ala) (S. cerevisiae) (UniProt P32526)
T4 sequence: T1 sequence with Y366A, R367A

[5] = target: T5, Full-length N-terminally hexa-histidine-tagged S. cerevisiae Kar9-αβγ^− (all three self-association interfaces mutated) (S. cerevisiae) (UniProt P32526)
T5 sequence: T1 sequence with R237A, N241A, F292A, L347A, Y366A, R367A

Measured: binding

B1: Full-length S. cerevisiae Bim1, untagged (protein, UniProt P40013 1-344)
chain: MSAGIGESRTELLTWLNGLLNLNYKKIEECGTGAAYCQIMDSIYGDLPMNRVKFNATAEYEFQTNYKILQSCFSRHGIEKTVYVDKLIRCKFQDNLEFLQWLKKHWIRHKDESVYDPDARRKYRPIITNNSATKPRTVSNPTTAKRSSSTGTGSAMSGGLATRHSSLGINGSRKTSVTQGQLVAIQAELTKSQETIGSLNEEIEQYKGTVSTLEIEREFYFNKLRDIEILVHTTQDLINEGVYKFNDETITGHGNGNGGALLRFVKKVESILYATAEGFEMNDGEDELNDKNLGEHGTVPNQGGYANSNGEVNGNEGSNHDVIMQNDEGEVGVSNNLIIDEETF
binds: all assays above
